No constants are given. Whether binding was seen depends on the method and setting. Some binding calls cover weakened binding; strength is not graded here.
Key:
[1] = biological target: human VSIG-4 (hVSIG4)/eGFP HEK transfectants (human) (UniProt Q9Y279); experiment: flow cytometry, titration on VSIG-4 transfected cells
[2] = biological target: human VSIG-4 (hVSIG4)/eGFP HEK transfectants (human) (UniProt Q9Y279); experiment: flow cytometry, anti-Fc APC detection
[3] = biological target: human VSIG-4 (hVSIG4)/eGFP HEK transfectants (human) (UniProt Q9Y279); experiment: flow cytometry, 2 ug/mL rhSiglec-7/Fc plus anti-Fc APC
[4] = biological target: naturally expressed VSIG-4 on M2c macrophages (human) (UniProt Q9Y279); experiment: flow cytometry, 1 ug/mL to 10 ug/mL, anti-Fc PE detection
[5] = biological target: human VSIG-4 (hVSIG4)/eGFP HEK transfectants (human) (UniProt Q9Y279); experiment: flow cytometry, 500 ng/mL to 6 ug/mL
[6] = biological target: human VSIG-4 (hVSIG4)/eGFP HEK transfectants (human) (UniProt Q9Y279); experiment: flow cytometry

Protein sequences, listed by entry. Tags and fused reporters are not part of them. Residues count along the entry.
UniProt Q9Y279, residues 20-399: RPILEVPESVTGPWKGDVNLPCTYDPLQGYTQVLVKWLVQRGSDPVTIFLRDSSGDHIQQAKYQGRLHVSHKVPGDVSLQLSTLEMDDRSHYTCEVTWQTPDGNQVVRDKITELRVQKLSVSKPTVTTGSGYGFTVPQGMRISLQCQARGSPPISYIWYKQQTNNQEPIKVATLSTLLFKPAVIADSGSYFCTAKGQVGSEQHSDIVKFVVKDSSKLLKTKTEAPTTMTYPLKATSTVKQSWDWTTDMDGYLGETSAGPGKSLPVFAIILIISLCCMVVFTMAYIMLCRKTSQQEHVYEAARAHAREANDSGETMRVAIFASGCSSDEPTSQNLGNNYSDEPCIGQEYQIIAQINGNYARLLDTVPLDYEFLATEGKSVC
UniProt Q9Y286, residues 19-357: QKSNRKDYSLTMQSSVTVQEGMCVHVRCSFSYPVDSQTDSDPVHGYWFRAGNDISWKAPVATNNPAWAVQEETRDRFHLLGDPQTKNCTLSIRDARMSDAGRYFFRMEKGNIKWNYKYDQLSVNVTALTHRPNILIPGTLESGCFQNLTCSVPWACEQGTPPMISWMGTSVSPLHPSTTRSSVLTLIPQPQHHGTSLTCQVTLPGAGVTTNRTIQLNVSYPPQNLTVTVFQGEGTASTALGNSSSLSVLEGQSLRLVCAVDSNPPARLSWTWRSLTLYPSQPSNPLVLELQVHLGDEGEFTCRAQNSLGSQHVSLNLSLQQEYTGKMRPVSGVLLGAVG

Measured: binding

recombinant human Siglec-7 (rhSiglec-7)/Fc protein (from UniProt Q9Y286 19-357) (Fc fusion)
binds: all assays above
